# In the supplement of paper PMC7024190:
# Several values for one entry are separate records, joined by “and”; a condition that tells them apart may be missing. Identical values can stand only once. This is one part of the list. Single values are uncertain here, since repeats match poorly.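 A first-round screen of about ten thousand compounds sought those raising reporter output, using human embryonic kidney cells briefly transfected with a plasmid carrying a Renilla luciferase gene driven by the HSV-TK promoter.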
# System: HEK 293FT
# Test: log relative Renilla luciferase luminescence (reporter expression vs reference, reference not stated) (log (base not stated)); higher = higher recombinant reporter expression
# Conditions: 10 µM; time after transfection 48 h
row,SMILES,log
1,CCC(=O)O[C@]1(C(=O)SCF)[C@H](C)C[C@H]2[C@@H]3C[C@H](F)C4=CC(=O)C=C[C@]4(C)[C@@]3(F)[C@@H](O)C[C@@]21C,-0.189
2,C#C[C@]1(O)CC[C@H]2[C@@H]3CCc4cc(OC)ccc4[C@H]3CC[C@@]21C,-0.109
3,CC(C)c1nc(CN(C)C(=O)N[C@H](C(=O)N[C@@H](Cc2ccccc2)C[C@H](O)[C@H](Cc2ccccc2)NC(=O)OCc2cncs2)C(C)C)cs1,-0.478
4,CC[C@H]1OC(=O)[C@H](C)C(=O)[C@H](C)[C@@H](O[C@@H]2O[C@H](C)C[C@H](N(C)C)[C@H]2O)[C@](C)(OC)C[C@@H](C)C(=O)[C@H](C)[C@H]2N(CCCCn3cnc(-c4cccnc4)c3)C(=O)O[C@]12C,-1.69
5,Nc1ccn([C@@H]2CS[C@H](CO)O2)c(=O)n1,-0.143
6,COc1ccnc(C[S+]([O-])c2nc3cc(OC(F)F)ccc3[nH]2)c1OC (centres undefined),-0.0466
7,C[C@@H]1C[C@H]2[C@@H]3C[C@H](F)C4=CC(=O)C(Cl)=C[C@]4(C)[C@@]3(F)[C@@H](O)C[C@]2(C)[C@@]1(O)C(=O)CO,-0.0284
8,CC(=O)NC[C@H]1CN(c2ccc(N3CCOCC3)c(F)c2)C(=O)O1,-0.337
9,CN(CCOc1ccc(CC2SC(=O)NC2=O)cc1)c1ccccn1 (centres undefined),-0.153 and -0.0782
10,CSc1nc2cc(Cl)c(Oc3cccc(Cl)c3Cl)cc2[nH]1,-0.0704
11,CC(=O)O[C@]1(C(C)=O)CC[C@H]2[C@@H]3C=C(C)C4=CC(=O)CC[C@]4(C)[C@H]3CC[C@@]21C,-1.45
12,COc1ccc(CCN(C)CCCC(C#N)(c2ccc(OC)c(OC)c2)C(C)C)cc1OC (centres undefined),0.186
13,O=C(CCCN1CCC(O)(c2ccc(Cl)cc2)CC1)c1ccc(F)cc1 [Haloperidol],0.141
14,COc1cc2nc(N(C)CCCNC(=O)C3CCCO3)nc(N)c2cc1OC (centres undefined),-1.07
15,Cc1c(O)c(=O)ccn1C,0.156
16,CCN1CC(CCN2CCOCC2)C(c2ccccc2)(c2ccccc2)C1=O (centres undefined),0.172
17,COc1cc(C)c(Cc2cnc(N)nc2N)cc1OC,-0.00738
18,COc1ccc(-c2cc(=O)c3c(OC)c(OC)c(OC)c(OC)c3o2)cc1OC [Nobiletin],-0.058
19,CCOC(=O)c1ncn2c1CN(C)C(=O)c1cc(F)ccc1-2,-0.18
20,COc1cc(C(=O)NC2CCCNC2)cc(OC)c1OC (centres undefined),-0.226
21,Fc1ccc([C@@H]2CCNC[C@H]2COc2ccc3c(c2)OCO3)cc1,-1.34
22,Cn1c(NCCN(CCO)CCCc2ccc([N+](=O)[O-])cc2)cc(=O)n(C)c1=O,-0.0854
23,Cc1ccc(NC(=O)c2ccc(CN3CCN(C)CC3)cc2)cc1Nc1nccc(-c2cccnc2)n1,-0.0539
24,C[C@H](N[C@@H](CCc1ccccc1)C(=O)O)C(=O)N1CCC[C@H]1C(=O)O,-0.529
